Measurements from the supplement of paper PMC10849652.
The list shows a part of the results.

Protein sequences, listed by entry. Tags and fused reporters are not part of them. Lines headed by an entry give the natural chain unless they say otherwise; changes in a name come on top.
UniProt Q14393: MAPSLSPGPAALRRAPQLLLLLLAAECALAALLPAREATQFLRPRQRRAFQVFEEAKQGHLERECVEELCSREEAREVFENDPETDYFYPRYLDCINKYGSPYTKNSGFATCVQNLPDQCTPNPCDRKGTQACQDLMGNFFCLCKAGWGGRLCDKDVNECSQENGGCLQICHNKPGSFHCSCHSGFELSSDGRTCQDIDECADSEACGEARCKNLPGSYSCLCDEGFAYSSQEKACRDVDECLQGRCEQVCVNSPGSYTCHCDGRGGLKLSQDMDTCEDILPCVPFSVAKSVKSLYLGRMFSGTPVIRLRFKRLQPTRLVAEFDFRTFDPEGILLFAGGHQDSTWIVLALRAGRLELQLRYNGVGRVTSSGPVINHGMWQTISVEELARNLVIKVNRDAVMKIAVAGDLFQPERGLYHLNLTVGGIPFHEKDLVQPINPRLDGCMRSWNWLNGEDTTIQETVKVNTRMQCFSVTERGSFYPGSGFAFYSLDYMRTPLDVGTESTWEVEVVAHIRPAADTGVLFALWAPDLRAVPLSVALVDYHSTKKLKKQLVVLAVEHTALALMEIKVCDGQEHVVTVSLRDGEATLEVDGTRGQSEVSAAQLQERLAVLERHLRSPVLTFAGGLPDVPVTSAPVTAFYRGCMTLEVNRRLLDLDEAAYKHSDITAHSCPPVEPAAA
UniProt P19526, whole entry, looked up: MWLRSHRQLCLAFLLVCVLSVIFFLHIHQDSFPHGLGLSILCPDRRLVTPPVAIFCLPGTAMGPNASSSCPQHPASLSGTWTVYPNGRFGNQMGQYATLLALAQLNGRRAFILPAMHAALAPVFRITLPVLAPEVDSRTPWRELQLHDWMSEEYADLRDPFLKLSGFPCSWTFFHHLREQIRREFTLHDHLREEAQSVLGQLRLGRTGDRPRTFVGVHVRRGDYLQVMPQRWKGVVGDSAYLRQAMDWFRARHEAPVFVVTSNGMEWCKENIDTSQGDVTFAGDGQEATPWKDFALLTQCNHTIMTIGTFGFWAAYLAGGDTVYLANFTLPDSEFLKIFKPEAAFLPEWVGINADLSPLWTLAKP
UniProt Q8TAK5: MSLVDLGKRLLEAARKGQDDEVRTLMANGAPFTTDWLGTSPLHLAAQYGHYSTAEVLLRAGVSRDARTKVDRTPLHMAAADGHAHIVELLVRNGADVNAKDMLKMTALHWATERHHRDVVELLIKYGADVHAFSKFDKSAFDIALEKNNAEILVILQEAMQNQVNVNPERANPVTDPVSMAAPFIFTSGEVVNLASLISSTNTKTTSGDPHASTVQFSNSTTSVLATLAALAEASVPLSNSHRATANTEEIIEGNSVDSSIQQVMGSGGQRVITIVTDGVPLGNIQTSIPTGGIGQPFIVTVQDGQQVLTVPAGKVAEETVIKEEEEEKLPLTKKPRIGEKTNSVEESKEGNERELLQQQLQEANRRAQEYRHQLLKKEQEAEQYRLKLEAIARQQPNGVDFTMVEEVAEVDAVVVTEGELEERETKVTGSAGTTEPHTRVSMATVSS
UniProt Q8IWF2: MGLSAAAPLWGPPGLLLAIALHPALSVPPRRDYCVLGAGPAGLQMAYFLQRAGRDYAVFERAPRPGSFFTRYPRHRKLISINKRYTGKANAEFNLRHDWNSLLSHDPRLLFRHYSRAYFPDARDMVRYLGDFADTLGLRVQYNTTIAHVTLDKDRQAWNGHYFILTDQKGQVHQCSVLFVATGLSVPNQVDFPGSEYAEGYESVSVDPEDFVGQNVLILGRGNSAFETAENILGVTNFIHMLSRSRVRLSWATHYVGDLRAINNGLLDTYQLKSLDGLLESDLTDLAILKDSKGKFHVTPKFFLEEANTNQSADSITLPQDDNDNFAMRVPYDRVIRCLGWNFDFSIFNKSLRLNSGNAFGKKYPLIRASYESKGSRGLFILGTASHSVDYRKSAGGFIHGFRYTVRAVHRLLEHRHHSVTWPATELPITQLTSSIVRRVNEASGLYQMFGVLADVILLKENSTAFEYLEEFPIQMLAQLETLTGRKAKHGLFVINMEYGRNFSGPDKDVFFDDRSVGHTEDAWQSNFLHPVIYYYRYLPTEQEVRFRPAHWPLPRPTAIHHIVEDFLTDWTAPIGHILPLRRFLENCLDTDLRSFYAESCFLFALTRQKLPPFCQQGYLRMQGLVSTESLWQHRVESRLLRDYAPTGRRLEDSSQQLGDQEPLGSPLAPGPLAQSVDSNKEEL
UniProt Q9UM11, whole entry, looked up: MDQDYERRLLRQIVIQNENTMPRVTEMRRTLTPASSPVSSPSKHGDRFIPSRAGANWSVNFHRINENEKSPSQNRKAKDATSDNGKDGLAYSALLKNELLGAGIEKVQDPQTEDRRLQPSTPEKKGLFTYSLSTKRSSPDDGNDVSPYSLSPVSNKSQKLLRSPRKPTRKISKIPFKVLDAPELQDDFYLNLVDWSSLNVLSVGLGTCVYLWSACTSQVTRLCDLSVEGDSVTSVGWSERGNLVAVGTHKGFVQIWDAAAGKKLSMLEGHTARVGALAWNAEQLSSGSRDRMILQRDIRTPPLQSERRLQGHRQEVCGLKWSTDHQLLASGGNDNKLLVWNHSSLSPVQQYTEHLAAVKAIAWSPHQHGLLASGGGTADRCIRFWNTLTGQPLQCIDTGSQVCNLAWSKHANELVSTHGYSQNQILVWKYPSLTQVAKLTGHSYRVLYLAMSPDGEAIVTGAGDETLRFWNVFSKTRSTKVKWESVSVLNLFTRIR
UniProt Q9UET6: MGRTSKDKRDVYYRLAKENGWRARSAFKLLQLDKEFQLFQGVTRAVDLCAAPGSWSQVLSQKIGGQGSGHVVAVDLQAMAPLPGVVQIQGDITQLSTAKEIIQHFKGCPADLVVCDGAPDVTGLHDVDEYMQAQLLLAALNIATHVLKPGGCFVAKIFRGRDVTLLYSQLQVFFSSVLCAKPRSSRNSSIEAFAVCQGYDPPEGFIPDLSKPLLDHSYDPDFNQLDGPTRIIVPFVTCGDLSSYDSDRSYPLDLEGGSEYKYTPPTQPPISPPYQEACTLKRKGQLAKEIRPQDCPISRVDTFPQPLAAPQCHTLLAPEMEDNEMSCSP
UniProt A2VDF0: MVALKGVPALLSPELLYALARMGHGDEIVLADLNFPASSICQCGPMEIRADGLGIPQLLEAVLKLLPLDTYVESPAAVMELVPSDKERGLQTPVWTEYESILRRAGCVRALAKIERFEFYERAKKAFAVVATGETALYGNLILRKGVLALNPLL
FOXO3B, A0A2Z4LIS9, UniProt A0A2Z4LIS9, whole entry, looked up: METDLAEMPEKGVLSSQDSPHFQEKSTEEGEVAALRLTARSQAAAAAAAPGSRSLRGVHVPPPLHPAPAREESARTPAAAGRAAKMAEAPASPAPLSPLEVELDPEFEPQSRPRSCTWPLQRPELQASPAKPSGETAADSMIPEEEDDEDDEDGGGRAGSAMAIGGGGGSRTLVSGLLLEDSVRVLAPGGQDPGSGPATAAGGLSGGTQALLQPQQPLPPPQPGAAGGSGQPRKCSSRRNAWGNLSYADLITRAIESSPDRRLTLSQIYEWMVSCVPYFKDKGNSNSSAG
UniProt O43716: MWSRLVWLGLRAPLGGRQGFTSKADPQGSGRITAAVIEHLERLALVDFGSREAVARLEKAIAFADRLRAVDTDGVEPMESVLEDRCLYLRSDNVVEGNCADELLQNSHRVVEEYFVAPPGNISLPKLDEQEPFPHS
UniProt P98177: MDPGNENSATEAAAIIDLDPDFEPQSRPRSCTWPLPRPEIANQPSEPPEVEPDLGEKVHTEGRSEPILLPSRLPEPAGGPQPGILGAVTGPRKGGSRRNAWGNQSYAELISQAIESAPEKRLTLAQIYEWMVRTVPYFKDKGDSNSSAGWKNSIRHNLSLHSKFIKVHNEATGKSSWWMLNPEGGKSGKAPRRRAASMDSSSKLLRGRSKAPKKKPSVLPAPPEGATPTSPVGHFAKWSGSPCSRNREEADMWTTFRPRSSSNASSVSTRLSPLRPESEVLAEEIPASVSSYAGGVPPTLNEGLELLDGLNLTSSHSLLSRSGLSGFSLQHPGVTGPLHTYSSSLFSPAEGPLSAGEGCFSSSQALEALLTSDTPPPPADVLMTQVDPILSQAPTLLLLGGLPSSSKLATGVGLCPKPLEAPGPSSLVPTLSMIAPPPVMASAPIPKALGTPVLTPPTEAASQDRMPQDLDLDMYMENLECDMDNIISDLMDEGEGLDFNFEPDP
UniProt Q9H840: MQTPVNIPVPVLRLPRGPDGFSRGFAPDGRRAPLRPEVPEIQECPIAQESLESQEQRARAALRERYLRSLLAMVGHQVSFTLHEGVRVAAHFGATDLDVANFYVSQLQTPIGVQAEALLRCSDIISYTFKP
UniProt P28676: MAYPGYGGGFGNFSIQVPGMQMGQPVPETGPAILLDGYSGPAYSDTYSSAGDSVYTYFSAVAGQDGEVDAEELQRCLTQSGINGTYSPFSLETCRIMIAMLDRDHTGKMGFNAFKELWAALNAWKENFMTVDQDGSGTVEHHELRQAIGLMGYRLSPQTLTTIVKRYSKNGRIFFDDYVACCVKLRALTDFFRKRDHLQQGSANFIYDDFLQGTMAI
UniProt Q8WWW8: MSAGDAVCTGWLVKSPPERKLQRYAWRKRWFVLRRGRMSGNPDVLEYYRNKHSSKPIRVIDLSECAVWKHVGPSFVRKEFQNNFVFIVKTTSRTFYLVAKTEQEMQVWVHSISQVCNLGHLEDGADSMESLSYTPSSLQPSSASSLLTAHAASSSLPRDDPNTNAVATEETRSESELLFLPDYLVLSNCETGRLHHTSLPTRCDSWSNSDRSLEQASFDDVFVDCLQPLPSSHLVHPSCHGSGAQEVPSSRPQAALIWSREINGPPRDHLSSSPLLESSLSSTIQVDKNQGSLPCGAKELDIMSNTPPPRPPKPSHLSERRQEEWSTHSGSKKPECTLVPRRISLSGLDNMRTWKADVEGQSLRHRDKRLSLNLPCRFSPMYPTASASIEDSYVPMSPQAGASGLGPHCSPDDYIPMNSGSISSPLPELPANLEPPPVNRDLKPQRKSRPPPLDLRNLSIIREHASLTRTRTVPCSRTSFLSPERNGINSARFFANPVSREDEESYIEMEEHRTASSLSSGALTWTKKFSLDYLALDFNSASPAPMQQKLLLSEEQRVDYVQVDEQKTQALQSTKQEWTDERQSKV
UniProt Q68DX3: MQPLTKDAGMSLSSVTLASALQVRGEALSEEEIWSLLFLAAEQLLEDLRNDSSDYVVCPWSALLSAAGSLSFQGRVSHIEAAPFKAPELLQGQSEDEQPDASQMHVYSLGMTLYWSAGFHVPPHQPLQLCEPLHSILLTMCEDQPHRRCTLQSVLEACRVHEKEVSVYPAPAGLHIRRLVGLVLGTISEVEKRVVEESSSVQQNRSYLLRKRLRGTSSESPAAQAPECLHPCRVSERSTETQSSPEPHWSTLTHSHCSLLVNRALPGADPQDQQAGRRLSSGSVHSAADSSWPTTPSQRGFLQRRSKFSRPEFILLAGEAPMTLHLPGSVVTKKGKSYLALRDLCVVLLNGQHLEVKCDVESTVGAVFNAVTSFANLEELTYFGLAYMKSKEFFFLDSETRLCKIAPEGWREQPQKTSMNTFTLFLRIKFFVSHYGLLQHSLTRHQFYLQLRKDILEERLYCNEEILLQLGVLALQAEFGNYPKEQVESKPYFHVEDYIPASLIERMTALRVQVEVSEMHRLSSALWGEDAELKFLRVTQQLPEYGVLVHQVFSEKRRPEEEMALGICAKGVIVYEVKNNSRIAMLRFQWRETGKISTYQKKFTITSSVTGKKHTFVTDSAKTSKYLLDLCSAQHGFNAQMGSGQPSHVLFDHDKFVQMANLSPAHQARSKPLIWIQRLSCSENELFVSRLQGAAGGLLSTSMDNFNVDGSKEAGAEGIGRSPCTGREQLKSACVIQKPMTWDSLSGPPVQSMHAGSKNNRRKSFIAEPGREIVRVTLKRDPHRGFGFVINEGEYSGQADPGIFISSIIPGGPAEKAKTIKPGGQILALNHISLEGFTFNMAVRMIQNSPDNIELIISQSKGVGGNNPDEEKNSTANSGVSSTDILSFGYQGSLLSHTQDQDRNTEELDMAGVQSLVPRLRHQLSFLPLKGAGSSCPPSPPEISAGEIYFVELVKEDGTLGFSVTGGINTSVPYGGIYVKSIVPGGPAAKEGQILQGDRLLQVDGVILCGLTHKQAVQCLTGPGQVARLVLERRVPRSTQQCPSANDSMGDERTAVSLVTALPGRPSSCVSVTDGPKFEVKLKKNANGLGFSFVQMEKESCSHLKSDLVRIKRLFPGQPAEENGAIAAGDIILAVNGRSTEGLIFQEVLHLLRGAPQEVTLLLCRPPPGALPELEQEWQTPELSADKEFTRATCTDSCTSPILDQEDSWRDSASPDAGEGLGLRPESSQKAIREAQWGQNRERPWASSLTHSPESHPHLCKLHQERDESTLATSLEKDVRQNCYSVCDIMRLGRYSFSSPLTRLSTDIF

Key:
Assay in all cases: log2 fold change, soluble protein after heating vs DMSO (PISA); higher = thermal stabilisation; K562 lysate, 10 uM; active = over 0.2 and 3.5 SD of the protein, either way, in both replicates (recomputed)
[1] = compound: C1=CC=C(C=C1)[C@H](COC2=CC3=C(C=C2)NC(=O)N3)NC(=O)C4=CC=CN(C4=O)CC5=CC(=C(C=C5)F)F
Procedure, shortened: (§1)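 Log-two fold change in thermal stability relative to solvent controls is reported from duplicates. For each sample, crude K562 extract from dounce-homogenised pellets in PBS pH 7.4 with 1 mM MgCl2, at 1 mg/mL protein, was treated with 10 μM compound for 30 min. Aliquots heated for 3 min across 48°C-58°C were pooled, brought to 0.5% NP-40 at 4°C and cleared at 21,000xg for 90 min. The supernatant was quantified by TMTpro 16plex LC-MS/MS with channel sums equalised.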

[2] = compound: CC1=C(SC2=C1C(=N[C@H](C3=NN=C(N32)C)CC(=O)N)C4=CC=C(C=C4)Cl)C
Procedure, shortened: as §1

[3] = compound: c1ccc([C@@H]2C[C@H]2NC2CCNCC2)cc1
Procedure, shortened: as §1

[4] = compound: Cc1sc2c(c1C)C(c1ccc(Cl)cc1)=N[C@@H](CC(=O)OC(C)(C)C)c1nnc(C)n1-2
Procedure, shortened: as §1

[5] = compound: CC1=C2C(=CC=C1)N=C(N(C2=O)C3=CC=CC=C3C)CN4C=NC5=C(N=CN=C54)N
Procedure, shortened: as §1

Q: Which log2 fold change [1] does the source give for GAS6 isoform 1 (UniProt Q14393) here?
A: inactive: 0.1

Q: What about the log2 fold change [2] of the same target?
A: inactive: -0.078

Q: And the log2 fold change [3]?
A: inactive: -0.291

Q: For FUT1 (UniProt P19526), which log2 fold change [3] is on record?
A: inactive: 0.133

Q: Which results are given for GABPB2 (UniProt Q8TAK5)?
A: log2 fold change [1]: inactive: 0.068; log2 fold change [2]: inactive: -0.014; log2 fold change [4]: inactive: -0.1; log2 fold change [3]: inactive: 0.126

Q: Which log2 fold change [5] does the source give for FOXRED2 (UniProt Q8IWF2) here?
A: inactive: -0.08

Q: And the log2 fold change [4]?
A: inactive: 0.019

Q: How did the log2 fold change [1] turn out when FZR1 isoform 2 (UniProt Q9UM11) was run?
A: inactive: -0.244

Q: And the log2 fold change [2]?
A: inactive: 0.126

Q: What about the log2 fold change [3] of the same target?
A: inactive: 0.039

Q: Which log2 fold change [5] does the source give for GALNT7 (UniProt H0YAH3) here?
A: inactive: 0.203

Q: And the log2 fold change [3]?
A: inactive: 0.114

Q: Which log2 fold change [1] does the source give for GART (UniProt C9JZG2) here?
A: inactive: -0.131

Q: And the log2 fold change [2]?
A: inactive: 0.086

Q: And the log2 fold change [3]?
A: inactive: -0.366

Q: With FTSJ1 isoform 2 (UniProt Q9UET6) as the target, how does the log2 fold change [5] read?
A: inactive: -0.089

Q: What about the log2 fold change [3] of the same target?
A: inactive: -0.234

Q: Which log2 fold change [4] does the source give for FSIP2 (UniProt Q5CZC0) here?
A: inactive: -0.16

Q: What about the log2 fold change [3] of the same target?
A: inactive: -0.224

Q: Which results are given for FUOM (UniProt A2VDF0)?
A: log2 fold change [5]: inactive: -0.097; log2 fold change [4]: inactive: 0.027; log2 fold change [3]: inactive: -0.071

Q: FOXO3B, A0A2Z4LIS9 was tested. Which log2 fold change [5] did it give?
A: inactive: 0.026

Q: And the log2 fold change [4]?
A: inactive: 0.058

Q: GATC (UniProt O43716) was tested. Which log2 fold change [5] did it give?
A: inactive: -0.004

Q: And the log2 fold change [4]?
A: inactive: 0.024

Q: And the log2 fold change [3]?
A: inactive: 0.112

Q: How did the log2 fold change [5] turn out when FRAT1 (UniProt Q92837) was run?
A: inactive: -0.011

Q: And the log2 fold change [4]?
A: inactive: -0.194

Q: How did the log2 fold change [4] turn out when GANC (UniProt Q8TET4) was run?
A: inactive: 0.109

Q: With FOXO4 (UniProt P98177) as the target, how does the log2 fold change [1] read?
A: inactive: -0.029

Q: And the log2 fold change [2]?
A: inactive: -0.131

Q: And the log2 fold change [3]?
A: inactive: -0.139

Q: How did the log2 fold change [4] turn out when FUT4 (UniProt P22083) was run?
A: inactive: -0.019

Q: And the log2 fold change [3]?
A: inactive: -0.104

Q: For FUS (UniProt H3BPE7), which log2 fold change [4] is on record?
A: inactive: 0.3

Q: Which results are given for GEMIN7 (UniProt Q9H840)?
A: log2 fold change [1]: inactive: 0.002; log2 fold change [2]: inactive: -0.087; log2 fold change [3]: inactive: -0.169

Q: Which log2 fold change [4] does the source give for GBP2 (UniProt P32456) here?
A: inactive: -0.102

Q: And the log2 fold change [3]?
A: inactive: -0.103

Q: FPGS (UniProt Q05932) was tested. Which log2 fold change [4] did it give?
A: inactive: -0.227

Q: Which results are given for FRAS1 isoform 2 (UniProt Q86XX4)?
A: log2 fold change [5]: inactive: -0.04; log2 fold change [4]: inactive: -0.021

Q: With GCA (UniProt P28676) as the target, how does the log2 fold change [3] read?
A: inactive: -0.095

Q: How did the log2 fold change [4] turn out when GAB3 isoform 2 (UniProt Q8WWW8) was run?
A: inactive: 0.277

Q: With FRMPD2 (UniProt Q68DX3) as the target, how does the log2 fold change [5] read?
A: inactive: -0.057

Q: What about the log2 fold change [3] of the same target?
A: inactive: 0.473

Q: FRYL isoform 2 (UniProt O94915) was tested. Which log2 fold change [3] did it give?
A: inactive: 0.071
